# In publication PMC10566113:
# Protein sequences, listed by entry. Tags and fused reporters are not part of them.
# UniProt P25490: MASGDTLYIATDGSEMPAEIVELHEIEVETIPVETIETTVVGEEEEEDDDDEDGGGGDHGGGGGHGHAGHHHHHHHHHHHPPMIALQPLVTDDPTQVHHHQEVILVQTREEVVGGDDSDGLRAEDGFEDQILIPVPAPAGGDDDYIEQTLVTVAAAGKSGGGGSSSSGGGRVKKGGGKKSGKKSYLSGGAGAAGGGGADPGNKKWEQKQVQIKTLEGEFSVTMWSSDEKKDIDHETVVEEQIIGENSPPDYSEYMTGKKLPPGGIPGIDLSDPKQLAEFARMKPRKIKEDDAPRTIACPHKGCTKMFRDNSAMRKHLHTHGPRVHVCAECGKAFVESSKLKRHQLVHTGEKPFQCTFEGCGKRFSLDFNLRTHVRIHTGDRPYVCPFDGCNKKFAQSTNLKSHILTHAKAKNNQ
# UniProt Q09472: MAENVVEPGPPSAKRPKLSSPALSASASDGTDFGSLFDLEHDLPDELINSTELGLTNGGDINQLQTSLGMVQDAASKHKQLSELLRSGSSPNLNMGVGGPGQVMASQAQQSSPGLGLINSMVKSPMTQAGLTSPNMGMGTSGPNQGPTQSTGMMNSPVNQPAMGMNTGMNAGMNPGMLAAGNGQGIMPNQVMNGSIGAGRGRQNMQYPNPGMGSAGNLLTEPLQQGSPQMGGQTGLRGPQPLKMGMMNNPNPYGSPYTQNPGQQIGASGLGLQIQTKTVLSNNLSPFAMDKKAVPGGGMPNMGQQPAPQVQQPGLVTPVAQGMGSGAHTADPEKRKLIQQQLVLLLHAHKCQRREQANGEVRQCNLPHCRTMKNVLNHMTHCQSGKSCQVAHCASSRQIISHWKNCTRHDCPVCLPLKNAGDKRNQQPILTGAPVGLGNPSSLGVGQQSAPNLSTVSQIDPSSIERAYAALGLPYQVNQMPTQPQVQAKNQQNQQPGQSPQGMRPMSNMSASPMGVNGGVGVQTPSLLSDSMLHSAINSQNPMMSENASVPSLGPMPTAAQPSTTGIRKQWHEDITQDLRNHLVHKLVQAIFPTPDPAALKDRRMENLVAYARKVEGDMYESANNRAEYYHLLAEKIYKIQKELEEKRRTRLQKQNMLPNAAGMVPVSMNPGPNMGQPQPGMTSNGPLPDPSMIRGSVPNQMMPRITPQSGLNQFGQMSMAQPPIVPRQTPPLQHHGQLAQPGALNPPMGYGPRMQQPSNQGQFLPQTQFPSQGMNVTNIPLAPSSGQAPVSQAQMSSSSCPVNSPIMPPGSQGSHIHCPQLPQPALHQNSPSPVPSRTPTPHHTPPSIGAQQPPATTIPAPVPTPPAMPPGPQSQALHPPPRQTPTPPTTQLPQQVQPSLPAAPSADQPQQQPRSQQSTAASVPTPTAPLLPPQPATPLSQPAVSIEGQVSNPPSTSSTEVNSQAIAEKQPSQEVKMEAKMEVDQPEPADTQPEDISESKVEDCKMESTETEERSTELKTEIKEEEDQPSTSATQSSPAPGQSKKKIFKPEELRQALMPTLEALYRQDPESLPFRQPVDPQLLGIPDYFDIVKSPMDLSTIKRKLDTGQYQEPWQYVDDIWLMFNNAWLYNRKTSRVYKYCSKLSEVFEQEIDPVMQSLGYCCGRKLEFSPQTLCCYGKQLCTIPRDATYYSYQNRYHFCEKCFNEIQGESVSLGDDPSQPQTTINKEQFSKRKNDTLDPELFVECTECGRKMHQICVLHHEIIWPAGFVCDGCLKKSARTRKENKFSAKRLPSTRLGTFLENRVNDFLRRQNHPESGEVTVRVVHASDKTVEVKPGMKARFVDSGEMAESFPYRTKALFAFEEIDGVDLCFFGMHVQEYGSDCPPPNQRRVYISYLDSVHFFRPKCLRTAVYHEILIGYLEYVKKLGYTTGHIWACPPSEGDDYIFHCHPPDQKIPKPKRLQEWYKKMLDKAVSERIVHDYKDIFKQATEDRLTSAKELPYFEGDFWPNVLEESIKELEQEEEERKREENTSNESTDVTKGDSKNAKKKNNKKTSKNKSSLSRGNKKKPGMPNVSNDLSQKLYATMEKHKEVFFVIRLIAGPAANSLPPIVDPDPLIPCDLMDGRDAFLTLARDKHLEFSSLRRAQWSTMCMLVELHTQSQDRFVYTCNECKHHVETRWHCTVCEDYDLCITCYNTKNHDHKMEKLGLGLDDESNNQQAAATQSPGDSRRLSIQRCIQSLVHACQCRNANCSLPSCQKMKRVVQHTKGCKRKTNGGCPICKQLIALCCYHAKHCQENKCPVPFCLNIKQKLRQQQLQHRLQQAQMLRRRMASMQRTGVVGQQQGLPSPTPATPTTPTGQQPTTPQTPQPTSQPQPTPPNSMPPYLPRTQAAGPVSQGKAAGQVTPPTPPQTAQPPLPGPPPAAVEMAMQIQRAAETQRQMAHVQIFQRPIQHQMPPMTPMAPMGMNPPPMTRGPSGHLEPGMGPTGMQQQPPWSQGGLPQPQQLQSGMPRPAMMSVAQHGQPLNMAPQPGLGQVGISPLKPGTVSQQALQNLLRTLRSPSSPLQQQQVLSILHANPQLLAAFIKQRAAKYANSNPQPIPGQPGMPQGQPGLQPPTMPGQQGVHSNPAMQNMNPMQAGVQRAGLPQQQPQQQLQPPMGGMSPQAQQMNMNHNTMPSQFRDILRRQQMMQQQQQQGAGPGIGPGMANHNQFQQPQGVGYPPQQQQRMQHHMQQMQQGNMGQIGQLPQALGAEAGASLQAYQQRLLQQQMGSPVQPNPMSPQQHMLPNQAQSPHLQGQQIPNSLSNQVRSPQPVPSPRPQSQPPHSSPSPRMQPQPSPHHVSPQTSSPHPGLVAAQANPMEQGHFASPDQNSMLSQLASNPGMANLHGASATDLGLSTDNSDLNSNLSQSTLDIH
# No constants are given. Whether binding was seen depends on the method and setting. In cells and extracts the contact can be indirect. Some binding calls cover weakened binding; strength is not graded here.
# Target: transcription factor YY1 (human (endogenous in CCLP1 and HuCCT1)) (UniProt P25490)
# Experiment: co-IP; immunoprecipitation assay in CCLP1 and HuCCT1 cells; which protein was precipitated and the buffer are not told
substance,measurement,value
histone acetyltransferase p300 (from UniProt Q09472 1-2414),binding,binds
